pIC50: −log10 of the molar value. Read-outs that look alike come from different tables or passages of the source. The match of structure and compound is tentative.
Key:
HER2 INS YVMA = HER2 INS YVMA (Homo sapiens, UniProt P04626, INS775YVMA); experiment: Lance Kinase Activity Assay, HER2 INS YVMA (Her2 Exon 20 INSYVMA Lance); conditions: read-out: Her2 Exon 20 INSYVMA Lance IC50, biochemical Lance assay
Description: 1. Measurement of HER2 INS YVMA Kinase Activity
This protocol describes how the Lance Kinase Activity Assay was performed to determine IC50 values of compounds of general formula (I) against HER2 INS YVMA. The principle behind this enzymatic assay is based upon the phosphorylation of the Ulight-peptide substrate. It is detected by using a specific EU-labeled anti-phospho peptide antibody. The binding of the Eu labeled anti-phospho peptide antibody to the phosphorylated ULight labeled peptide gives rise to a FRET-signal.
Binding of an inhibitor to the kinase prevents phosphorylation of the Ulight-substrate, resulting in a loss of FRET. In table 2 is summarized the relevant information for the LANCE assay. […]
For every sample, 8 μl of kinase-substrate mix was transferred into a suitable assay plate (e.g. Corning #3673). […] After a second incubation period of 1 h at room temperature the FRET signal was measured at 340 nm excitation, 665 nm and 615 nm emission (for the ULight-substrate and Eu-AB, respectively) with an Envision spectrophotometer (Perkin Elmer, Waltham, Mass., USA) with 50 μs delay and 300 μs integration time. IC50 values were determined from the sigmoidal dose response curves with the software Quattro Workflow (Quattro GmbH, Munich, Germany).

By UniProt entry, the sequences of proteins in these tests, tags left out. Chains listed by the source or under a name are the forms on record and can include a tag or linker. Residues count along the entry.
UniProt P04626, with tags, fused parts or gaps DUP772-775: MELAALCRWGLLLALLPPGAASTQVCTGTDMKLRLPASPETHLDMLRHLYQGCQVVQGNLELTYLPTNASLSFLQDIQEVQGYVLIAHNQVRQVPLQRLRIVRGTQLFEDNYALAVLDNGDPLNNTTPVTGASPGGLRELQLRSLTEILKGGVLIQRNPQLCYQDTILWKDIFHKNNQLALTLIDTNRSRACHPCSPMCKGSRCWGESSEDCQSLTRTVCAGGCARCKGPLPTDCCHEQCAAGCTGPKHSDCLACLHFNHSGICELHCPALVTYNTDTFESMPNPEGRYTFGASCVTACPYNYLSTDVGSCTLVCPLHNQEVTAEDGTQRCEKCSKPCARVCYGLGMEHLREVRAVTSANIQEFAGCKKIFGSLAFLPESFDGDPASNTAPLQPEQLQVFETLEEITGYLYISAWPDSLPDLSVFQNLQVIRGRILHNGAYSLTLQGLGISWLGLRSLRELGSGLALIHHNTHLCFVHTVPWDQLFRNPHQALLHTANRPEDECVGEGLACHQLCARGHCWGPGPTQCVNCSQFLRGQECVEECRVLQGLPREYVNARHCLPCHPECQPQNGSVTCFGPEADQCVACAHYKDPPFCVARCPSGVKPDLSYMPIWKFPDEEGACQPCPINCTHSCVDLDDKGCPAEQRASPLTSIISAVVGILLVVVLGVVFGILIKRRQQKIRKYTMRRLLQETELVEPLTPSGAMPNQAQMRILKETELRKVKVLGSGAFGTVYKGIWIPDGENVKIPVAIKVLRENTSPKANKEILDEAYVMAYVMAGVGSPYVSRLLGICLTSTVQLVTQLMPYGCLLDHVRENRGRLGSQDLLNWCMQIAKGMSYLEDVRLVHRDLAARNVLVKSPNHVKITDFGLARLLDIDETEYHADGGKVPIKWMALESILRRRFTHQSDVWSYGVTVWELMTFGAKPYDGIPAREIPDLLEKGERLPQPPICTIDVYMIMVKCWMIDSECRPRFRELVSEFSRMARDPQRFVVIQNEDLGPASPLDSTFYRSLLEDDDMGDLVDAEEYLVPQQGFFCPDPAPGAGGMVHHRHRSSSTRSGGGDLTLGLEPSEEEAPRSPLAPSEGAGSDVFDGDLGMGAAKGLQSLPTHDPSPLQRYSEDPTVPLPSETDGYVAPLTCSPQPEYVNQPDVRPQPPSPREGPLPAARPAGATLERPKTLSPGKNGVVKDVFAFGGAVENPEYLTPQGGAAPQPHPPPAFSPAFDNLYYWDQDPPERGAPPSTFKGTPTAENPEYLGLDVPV
UniProt P04626, with tags, fused parts or gaps INS775YVMA limits assumed: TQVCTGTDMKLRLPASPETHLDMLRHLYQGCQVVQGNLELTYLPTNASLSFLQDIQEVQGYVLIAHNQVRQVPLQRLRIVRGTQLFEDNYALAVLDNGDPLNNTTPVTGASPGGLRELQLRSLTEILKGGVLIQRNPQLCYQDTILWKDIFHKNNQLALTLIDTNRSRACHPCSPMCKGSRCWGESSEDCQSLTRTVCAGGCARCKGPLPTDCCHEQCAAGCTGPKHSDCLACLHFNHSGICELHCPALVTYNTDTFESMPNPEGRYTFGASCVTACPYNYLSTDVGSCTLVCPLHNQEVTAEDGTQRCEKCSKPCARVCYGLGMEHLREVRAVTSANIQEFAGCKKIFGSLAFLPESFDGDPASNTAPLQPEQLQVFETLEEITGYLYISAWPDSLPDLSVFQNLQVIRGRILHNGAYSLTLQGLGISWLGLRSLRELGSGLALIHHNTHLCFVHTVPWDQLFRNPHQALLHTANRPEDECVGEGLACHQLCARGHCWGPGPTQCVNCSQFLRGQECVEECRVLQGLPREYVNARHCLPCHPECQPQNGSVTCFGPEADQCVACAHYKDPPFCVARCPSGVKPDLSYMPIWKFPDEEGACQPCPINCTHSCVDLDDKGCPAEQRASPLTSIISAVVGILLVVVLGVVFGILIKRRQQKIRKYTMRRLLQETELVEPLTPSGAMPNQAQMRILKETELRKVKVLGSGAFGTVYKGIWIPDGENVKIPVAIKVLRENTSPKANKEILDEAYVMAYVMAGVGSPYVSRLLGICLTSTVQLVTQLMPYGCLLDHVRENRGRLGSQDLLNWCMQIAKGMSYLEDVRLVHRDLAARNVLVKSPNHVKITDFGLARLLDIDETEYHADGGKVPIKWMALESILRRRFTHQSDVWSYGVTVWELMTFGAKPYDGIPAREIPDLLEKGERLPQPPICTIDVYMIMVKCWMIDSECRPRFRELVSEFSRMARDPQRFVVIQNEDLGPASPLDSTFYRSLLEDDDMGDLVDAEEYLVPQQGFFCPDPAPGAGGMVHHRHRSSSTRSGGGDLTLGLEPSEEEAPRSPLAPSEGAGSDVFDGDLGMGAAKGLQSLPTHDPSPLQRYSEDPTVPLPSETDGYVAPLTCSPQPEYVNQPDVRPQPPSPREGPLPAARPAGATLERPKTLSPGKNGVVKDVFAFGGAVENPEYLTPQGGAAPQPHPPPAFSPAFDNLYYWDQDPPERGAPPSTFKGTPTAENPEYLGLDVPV
UniProt P00533, 25-1210 limits assumed: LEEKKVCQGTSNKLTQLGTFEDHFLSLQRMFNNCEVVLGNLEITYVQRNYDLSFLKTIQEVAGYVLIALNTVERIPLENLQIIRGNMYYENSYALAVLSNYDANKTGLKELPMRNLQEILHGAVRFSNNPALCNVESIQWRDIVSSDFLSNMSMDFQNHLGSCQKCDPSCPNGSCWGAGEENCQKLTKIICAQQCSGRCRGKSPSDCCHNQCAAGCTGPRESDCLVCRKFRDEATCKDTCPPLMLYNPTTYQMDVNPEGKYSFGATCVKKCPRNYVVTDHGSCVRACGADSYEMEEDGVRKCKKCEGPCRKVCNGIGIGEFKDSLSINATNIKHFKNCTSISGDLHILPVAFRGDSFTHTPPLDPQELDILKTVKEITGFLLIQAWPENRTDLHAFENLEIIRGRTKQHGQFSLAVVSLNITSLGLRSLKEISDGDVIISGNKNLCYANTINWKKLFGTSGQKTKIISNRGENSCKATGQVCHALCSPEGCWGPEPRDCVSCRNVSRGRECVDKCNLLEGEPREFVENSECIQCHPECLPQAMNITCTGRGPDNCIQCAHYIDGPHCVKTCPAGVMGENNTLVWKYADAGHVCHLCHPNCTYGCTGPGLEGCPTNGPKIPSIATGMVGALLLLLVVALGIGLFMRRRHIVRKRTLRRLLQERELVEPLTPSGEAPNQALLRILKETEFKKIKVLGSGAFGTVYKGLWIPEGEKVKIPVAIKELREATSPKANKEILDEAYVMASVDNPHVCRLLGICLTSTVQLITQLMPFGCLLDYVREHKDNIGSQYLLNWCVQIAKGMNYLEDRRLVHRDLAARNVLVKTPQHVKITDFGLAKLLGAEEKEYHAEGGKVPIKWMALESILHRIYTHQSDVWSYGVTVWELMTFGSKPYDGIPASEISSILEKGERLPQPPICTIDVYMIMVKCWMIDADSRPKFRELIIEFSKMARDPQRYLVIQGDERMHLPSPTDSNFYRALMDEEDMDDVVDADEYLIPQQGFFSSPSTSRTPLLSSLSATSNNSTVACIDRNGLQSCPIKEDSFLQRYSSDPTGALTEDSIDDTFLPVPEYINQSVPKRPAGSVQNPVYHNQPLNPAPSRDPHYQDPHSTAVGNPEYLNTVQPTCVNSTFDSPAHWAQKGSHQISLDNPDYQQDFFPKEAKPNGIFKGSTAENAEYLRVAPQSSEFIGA
UniProt P00533, 25-1210 T790M/L858R limits assumed: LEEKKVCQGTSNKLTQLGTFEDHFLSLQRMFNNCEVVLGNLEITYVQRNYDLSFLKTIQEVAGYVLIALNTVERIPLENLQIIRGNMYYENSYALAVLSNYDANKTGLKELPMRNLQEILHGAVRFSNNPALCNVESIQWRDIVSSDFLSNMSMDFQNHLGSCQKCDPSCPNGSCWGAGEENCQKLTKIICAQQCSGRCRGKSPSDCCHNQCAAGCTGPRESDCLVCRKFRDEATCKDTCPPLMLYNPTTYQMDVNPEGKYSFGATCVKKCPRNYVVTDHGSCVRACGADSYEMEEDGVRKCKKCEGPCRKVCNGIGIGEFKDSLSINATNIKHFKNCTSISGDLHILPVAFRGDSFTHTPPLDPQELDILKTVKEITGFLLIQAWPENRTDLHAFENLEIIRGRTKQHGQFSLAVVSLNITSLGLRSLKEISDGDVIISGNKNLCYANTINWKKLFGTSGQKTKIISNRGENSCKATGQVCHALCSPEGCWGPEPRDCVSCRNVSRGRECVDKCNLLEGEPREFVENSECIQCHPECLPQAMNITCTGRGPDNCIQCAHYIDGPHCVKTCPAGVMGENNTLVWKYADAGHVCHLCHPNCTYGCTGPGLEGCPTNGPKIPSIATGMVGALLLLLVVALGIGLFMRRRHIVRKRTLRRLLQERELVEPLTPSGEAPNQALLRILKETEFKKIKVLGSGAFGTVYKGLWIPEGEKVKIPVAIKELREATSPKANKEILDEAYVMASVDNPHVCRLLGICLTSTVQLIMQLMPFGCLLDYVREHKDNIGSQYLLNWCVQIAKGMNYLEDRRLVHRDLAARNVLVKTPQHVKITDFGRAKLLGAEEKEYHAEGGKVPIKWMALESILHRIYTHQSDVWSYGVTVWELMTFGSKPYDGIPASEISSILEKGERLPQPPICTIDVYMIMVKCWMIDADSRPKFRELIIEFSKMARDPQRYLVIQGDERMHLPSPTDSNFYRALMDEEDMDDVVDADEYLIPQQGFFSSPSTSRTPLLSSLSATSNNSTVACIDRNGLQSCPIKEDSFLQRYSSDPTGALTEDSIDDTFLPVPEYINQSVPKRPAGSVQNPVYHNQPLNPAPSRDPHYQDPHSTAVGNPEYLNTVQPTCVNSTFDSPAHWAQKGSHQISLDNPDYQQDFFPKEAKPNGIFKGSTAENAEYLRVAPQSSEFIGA
UniProt P00533, with tags, fused parts or gaps DUP771-773: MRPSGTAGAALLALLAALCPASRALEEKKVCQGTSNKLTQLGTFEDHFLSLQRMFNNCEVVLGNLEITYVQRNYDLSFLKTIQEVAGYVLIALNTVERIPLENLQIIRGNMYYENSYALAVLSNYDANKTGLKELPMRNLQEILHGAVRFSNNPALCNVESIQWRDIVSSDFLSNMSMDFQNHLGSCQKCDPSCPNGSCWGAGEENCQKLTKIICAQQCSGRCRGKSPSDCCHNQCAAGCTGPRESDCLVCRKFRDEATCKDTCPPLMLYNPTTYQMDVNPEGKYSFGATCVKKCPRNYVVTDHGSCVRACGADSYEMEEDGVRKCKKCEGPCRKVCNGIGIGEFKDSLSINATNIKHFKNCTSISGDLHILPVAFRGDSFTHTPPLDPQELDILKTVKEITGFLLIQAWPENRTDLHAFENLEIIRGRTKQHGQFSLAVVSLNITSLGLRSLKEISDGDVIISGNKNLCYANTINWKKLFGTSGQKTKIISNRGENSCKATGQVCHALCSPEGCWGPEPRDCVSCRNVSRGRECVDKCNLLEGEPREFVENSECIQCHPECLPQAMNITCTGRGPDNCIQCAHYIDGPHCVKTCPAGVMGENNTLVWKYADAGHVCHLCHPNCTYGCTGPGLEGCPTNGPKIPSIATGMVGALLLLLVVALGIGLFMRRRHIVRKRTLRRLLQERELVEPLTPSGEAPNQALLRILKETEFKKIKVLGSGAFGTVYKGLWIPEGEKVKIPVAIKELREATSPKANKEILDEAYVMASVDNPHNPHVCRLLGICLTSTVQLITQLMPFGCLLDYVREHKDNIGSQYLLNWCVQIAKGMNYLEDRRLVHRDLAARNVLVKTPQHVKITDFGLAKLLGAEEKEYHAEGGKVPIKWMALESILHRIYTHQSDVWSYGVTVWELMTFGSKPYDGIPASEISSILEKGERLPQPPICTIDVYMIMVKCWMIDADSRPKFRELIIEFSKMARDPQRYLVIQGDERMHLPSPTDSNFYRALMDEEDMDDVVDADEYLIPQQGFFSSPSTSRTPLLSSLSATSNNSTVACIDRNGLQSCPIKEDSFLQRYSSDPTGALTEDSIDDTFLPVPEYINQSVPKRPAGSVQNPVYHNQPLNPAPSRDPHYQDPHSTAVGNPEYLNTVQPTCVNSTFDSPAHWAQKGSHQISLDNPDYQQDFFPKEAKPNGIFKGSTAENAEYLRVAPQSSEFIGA

[1] = biological target: Her2 Exon 20 INSYVMA Ba/F3 (Homo sapiens, UniProt P04626, DUP772-775, cells depend on it); experiment: Her2 Exon 20 INSYVMA Ba/F3 CellTiter-Glo
Description: (§1) 2. Measurement of Cellular Activity
(§2) The CellTiter-Glo Luminescent Cell Viability Assay (Promega) is a homogeneous method of determining the number of viable cells in culture. It is based on quantification of ATP, indicating the presence of metabolically active cells. Cells are seeded on day 1 at cell numbers that assure assay linearity and optimal signal intensity. After incubation for 24 h in humidified chambers at 37° C. and 5% CO2, compounds in DMSO are added at different concentrations. Cells are further incubated for 72 h at 37° C. and 5% CO2. Cells treated with the compound vehicle DMSO are used as positive controls and cells treated with 10 μM Staurosporine serve as negative controls. At day 5 the CellTiter Glo Reagent is prepared according to the instructions of the kit (Promega Inc.): Reagent is mixed 1:1 with cell culture medium. Thereon, mixture and assay plates are equilibrated at room temperature for 20 min. […] Following incubation the luminescence is recorded on a Victor microplate reader (Perkin Elmer) using a 200 ms integration time. The data is then analyzed with Excel using the XLFIT Plugin (dose response Fit 205) for IC50-determination. As quality control the Z′-factor is calculated from 16 positive and negative control values. […]
(§3) Inhibition is indicated as IC50 [nM] (“−”=not measured). […]

[2] = biological target: EGFR Exon 20 INSNPH Ba/F3 (Homo sapiens, UniProt P00533, DUP771-773, cells depend on it); experiment: EGFR Exon 20 INSNPH Ba/F3 CellTiter-Glo
Description: as §1, §2, §3

EGFR T790ML858R = EGFR T790ML858R (Homo sapiens, UniProt P00533, L858R/T790M); experiment: EGFR T790ML858R Lance assay; conditions: read-out: EGFR T790M L858R Lance IC50
Description: (§4) Inhibition is indicated as […] [nM] (“−”=not measured). Compounds having an activity designated as “A” provided an IC50≤100 nM; compounds having an activity designated as “B” provided an 100 nM<IC50≤500 nM; compounds having an activity designated as “C” provided an 500 nM<IC50≤1000 nM; compounds having an activity designated as “D” provided an 1000 nM<IC50≤100000 nM; and compounds having an activity designated as “E” provided an IC50>10000 nM.

EGFR wt = EGFR wt (Homo sapiens, UniProt P00533); experiment: EGFR wt Lance assay; conditions: read-out: EGFR wt Lance IC50
Description: as §4

H1975 = H1975 CellTiter-Glo; conditions: read-out: H1975 CTG IC50, 72 h compound incubation
Description: as §1, §2
(§5) Inhibition is indicated as […] [nM] (“−”=not measured). […]

H1781 = H1781 CellTiter-Glo; conditions: read-out: H1781 CTG IC50; 72 h compound incubation; tested form: TFA
Description: as §1, §2, §5

A431 = A431 CellTiter-Glo; conditions: read-out: A431 CTG IC50, 72 h compound incubation
Description: as §1, §2, §5

[3] = Metabolic stability in mouse liver microsomes without cofactor NADPH; conditions: 3 μM test compound, 37° C., LC-MS/MS, tested form: TFA
From the text: There are two major groups of enzyme reactions catalyzed by drug metabolizing enzymes, the so called Phase I and Phase II reactions. The basic processes in phase I reactions are oxidation, reduction and/or hydrolysis mostly catalyzed by the cytochrome P450 (CYP) family of enzymes. Exploring the metabolic stability of reference 1 we have observed as a major metabolite the hydrolysis of the acrylamide moiety in the presence of mouse liver microsomes with and without the cofactor NADPH.
The following procedures describe the determination of the in vitro Phase I metabolic stability of test compounds using liver microsomes by measuring compound depletion over time. Test compound at the concentration of 3 μM was incubated with the liver microsomes from the mouse species and the experiment was performed without NADPH. The depletion of the test compounds was measured over time up to 50 minutes at 37° C. by LC-MS/MS. Different compounds were tested under these conditions for microsomal stability (see Table 5). Prevention of hydrolysis of the acrylamide moiety was achieved either by the introduction of substituents like a methyl group (as in Example 1) next to the acrylamide moiety or by modifying the secondary acrylamide of reference 1 to a tertiary acrylamide (like Example 55).

With `C=CC(=O)Nc1cc(-c2c(-c3ccc(N4CCN(C)CC4)cc3)[nH]c3nccc(OC)c23)ccc1C` as the compound, how does the pIC50 (HER2 INS YVMA; tested form: TFA) read?
Its pIC50 is greater than 7.00.

What about the GI50 ([1]; read-out: Her2 Exon 20 INSYVMA Ba/F3 CTG IC50, 72 h, tested form: TFA) of the same compound?
The GI50 was less than 0.1 µM.

And the GI50 ([2]; read-out: EGFR Exon 20 INSNPH Ba/F3 CTG IC50, 72 h, tested form: TFA)?
Its GI50 is less than 0.1 µM.

What about the pIC50 (EGFR T790ML858R; tested form: TFA) of the same compound?
The pIC50 was greater than 7.00.

What about the pIC50 (EGFR wt; tested form: TFA) of the same compound?
Its pIC50 is greater than 7.00.

What about the pIC50 (H1975; tested form: TFA) of the same compound?
Its pIC50 is greater than 7.00.

And the pIC50 (H1781)?
Its pIC50 is 6.30 to 7.00.

And the pIC50 (A431; tested form: TFA)?
The pIC50 was 6.30 to 7.00.

And the “Stability in presence of mouse liver microsomes without cofactor NADPH [% remaining after 50 min]” value [3]?
The value was greater than 99 % remaining after 50 min.

What does the source list for `C=CC(=O)Nc1cc(-c2c(-c3ccc(N4CCN(C)CC4)cc3)[nH]c3ncc(CC(=O)NC)cc23)ccc1C`?
pIC50 (HER2 INS YVMA): > 7.00; GI50 ([1]; read-out: Her2 Exon 20 INSYVMA Ba/F3 CTG IC50, 72 h): < 0.1 µM; GI50 ([2]; read-out: EGFR Exon 20 INSNPH Ba/F3 CTG IC50, 72 h): 1 to 10 µM; pIC50 (EGFR T790ML858R): > 7.00; pIC50 (EGFR wt): > 7.00; pIC50 (H1975): 4.00 to 6.00; pIC50 (A431): 4.00 to 6.00

— patent US20220370440A1 (Lead Discovery Center GmbH, priority 2018, published 2022)
